Reference: the supplement of paper PMC3334620
Whole data set: some 33,000 sequences, median “E-score (-0.5 to 0.5)” near -8e-05, cut for the highest 2% near 0.23. This is one part of the list.

Biological target: T1, Nrg2 (UniProt P38082)
T1 sequence: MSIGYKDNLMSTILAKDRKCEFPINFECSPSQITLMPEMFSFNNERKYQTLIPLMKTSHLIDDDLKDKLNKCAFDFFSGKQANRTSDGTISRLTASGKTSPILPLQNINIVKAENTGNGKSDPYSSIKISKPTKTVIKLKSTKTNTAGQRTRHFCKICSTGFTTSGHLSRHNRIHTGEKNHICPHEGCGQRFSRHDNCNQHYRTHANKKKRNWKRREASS
Test: PBM E-score (8-mer binding enrichment) (E-score (-0.5 to 0.5)); higher = stronger / more preferred TF binding
Details: protein concentration: 100 nM; construct: GST-full length
Description: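 Universal 'all 10-mer' protein binding microarrays (Agilent AMADID 015681) probed with GST-tagged S. cerevisiae TFs (full-length or DBD) made by in vitro transcription/translation (PURExpress), about 100-200 nM. Bound TF was detected with fluorescent anti-GST. Each ungapped 8-mer (which stands for itself and its reverse complement) is scored by the PBM enrichment score (E-score), a modified Wilcoxon-Mann-Whitney statistic from -0.5 to +0.5, computed with the Universal PBM Analysis Suite. Scale: above 0.35 generally sequence-specific binding.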

Sequence	PBM E-score
CCTTATGA	0.12
CCTTTCAG	0.0381
CAAGTTAC	0.0198
GGAGCGCA	-0.236
ATTTTACC	0.181
GTTTGGAA	-0.056
CGCTTCCA	-0.0694
ATAGGCGG	0.0155
CGCGACAC	0.00607
GGACAGAC	-0.124
ACCACGTA	-0.278
GAAGGATC	0.00353
AGTGCGTA	-0.0257
CGAGGAAG	-0.209
GACAGTGC	0.0298
ACTTCTCA	0.0225
CAATACCG	0.0306
CGTGAGCA	-0.157
CATTTGGA	0.166
AGAGTTCA	-0.0673
GACCCGTC	-0.108
CGGGGGGA	-0.406
CTAAGTTC	-0.00111
AACATATA	0.149
AGGGCTGG	-0.176

Sequence	PBM E-score
GGAGATCC	-0.012
TTGCAAAA	0.165
AATGTCTA	-0.0517
CACCGACC	-0.106
AGACCGCA	0.0799
ACTGCGAT	0.0256
AATGTTAA	-0.0987
CAAGCAAG	0.014
AGCTCCAA	0.0886
GGCCTCGA	-0.0833
CCTGGCAA	0.0435
GTCACTAA	0.173
ATTACCGC	0.0374
TCAAGGGA	0.0644
GCTTCCCC	-0.258
ATCAACCC	0.297
AGGCGCGA	0.14
ACCCCACA	0.201
AAGGGTGC	0.141
TAGTCTCA	-0.181
CATTTCCG	0.182
CCCGCCAG	-0.148
CTACGACA	0.0855
ACCCAGAG	0.133
CGTTAGGC	-0.197

Individual results from the entries so far.
Under PBM E-score, ACTTCTCA reads 0.0225
Under PBM E-score, AGGCGCGA reads 0.14

(cont.)

Sequence	PBM E-score
CAAAAAGA	0.0883
AACCTACT	0.0513
CTCGGAGC	0.0933
CCCGTAGC	-0.176
AATAAGCG	-0.0202
CTACACAC	0.00452
AATTCACA	0.204
GACGGGGC	-0.121
CAACGTTA	0.101
CGAAGTGC	0.148
GTATTCCA	0.0351
TTACTAAA	0.123
CCTAGGCG	-0.117
GGCAAGTA	0.104
AATAAAAC	0.12
CATGATTC	-0.02
ACACAACC	-0.0638
GTCAGAAA	0.0126
ATAATGGA	0.0299
CGTGCAGC	0.126
ACCCATTC	0.0717
ATTACTAA	0.17
GGGGGCCA	-0.321
ACATGCTG	-0.00272
ATACTATG	0.167

Sequence	PBM E-score
GGGAGGTA	-0.0472
TCAGAGCA	-0.0393
GCACGGCA	-0.0219
AAATTCCA	0.254
ATATGATA	0.249
ACGCTGTG	-0.0124
ACTCAAAT	-0.0419
ACAACAAC	0.0873
GACTTAAC	-0.229
AATTAATA	0.303
GAGTGCGC	0.0551
CGCTCCAG	-0.0707
ATCACGTG	0.0394
ATAATATA	0.268
AATCAAGC	-0.107
AGACACCC	-0.166
CAACTTAC	-0.199
CTGGCCCA	-0.115
AGGTGTCG	0.0158
CATCAGGA	0.0652
AGCCGCTA	-0.159
CGCATGAC	0.01
TCGTGCAA	0.0945
AAGTTGAT	0.0287
GAGGGTGC	-0.274

Sequence	PBM E-score
CCGGCTTC	0.0769
CATAATCA	0.185
AGTGTCTG	0.0987
ACTGATGC	-0.0236
CCTCTCTC	-0.232
ACTTATTC	0.109
ACCCGGTC	-0.147
AAGCTTCG	-0.109
CGTGCGAC	-0.161
TAGGACCA	-0.0435
CATCCAAA	-0.00312
ATTATATG	0.132
AGTGGCAG	-0.0855
CACTTCGG	0.101
GGTTCTCA	0.0672
CCCCGTAG	-0.0478
CTCAATGA	0.104
AGCAAAGC	-0.07
TAACATTA	0.0456
TGCGAAAA	0.115
CCTCACGA	-0.111
GTCCGGGA	0.106
ATAATTCC	0.0468
CCAATATC	0.103
ATCTCACA	-0.0306

4 entries picked at random from those above:
Sequence	PBM E-score
CCTCACGA	-0.111
ACCCGGTC	-0.147
CCCCGTAG	-0.0478
CCAATATC	0.103

Next part

Sequence	PBM E-score
ACCTACCC	-0.0864
AAGAGAGG	-0.015
GAAAAGTC	-0.0781
AGAATGCT	0.108
AAATGTTG	-0.25
TACATGGA	0.0188
CCAGCCAC	-0.0358
CCCCGTAA	0.0183
GAGCCTAC	-0.161
ATGAAACG	0.135
ATTATTGA	0.00926
AGGGTTGC	0.0768
CAAGCGCC	-0.196
CACAGGAC	0.104
AGTAGTTC	0.207
ACCTAGAG	-0.207
GTCGGGCA	-0.175
AAATCGAT	0.152
ACTTTAGG	-0.198
CTTTGCAA	0.036
GGCGCTAA	-0.0159
CCTCTCAG	-0.0635
GACTCCGC	-0.167
AGACGTTG	0.0906
ACCCGTTG	-0.0284

Nothing new here: entries from further up.
Sequence	PBM E-score
AAATTCCA	0.254
ATATGATA	0.249

Further entries.

Sequence	PBM E-score
ACCGGAAC	0.107
CGGTCAAC	-0.0206
GACAACCA	0.122
CAACTGAG	0.139
ACTTCAGA	-0.0595
TAGCGCCA	-0.0778
TAGGGATA	0.134
GAAGCCGA	0.0509
AGACGCCG	0.0759
GGCATCGA	-0.146
CGGCCCAC	-0.228
AATACACA	0.0795
CCCTCCGC	-0.145
ATGTGGAA	0.117
GGAATAAC	0.132
CTGGTTAA	-0.00464
CCTCTTAG	0.139
CTCGTACA	0.0795
TAGTTTGA	0.0895
TATTCACA	0.155
CGGGAATC	0.104
GCTGGGCC	-0.212
